No constants are given. Whether binding was seen depends on the method and setting. Binding seen in cells or lysates may run through a third protein. A yes stands for co-enrichment or nearness to the bait. Other partners may have been found. Where a sequence is shown, tags or fusion partners need not be part of it.
Experiments:
[1] = biological target: T1, MORC6-3xFlag (Arabidopsis thaliana) (UniProt Q56Y74); assay: affinity purification with mass spectrometry; 3 g flower tissue of transgenic plants; Lysis buffer (50 mM Tris pH 7.6, 150 mM NaCl, 5 mM MgCl2, 10% glycerol, 0.1% NP-40, 0.5 mM DTT); antibody agarose, 4°C, 2.5 h, four washes, elution with 3xFlag peptide; total eluted proteins or silver-stained bands cut from the SDS-PAGE gel; LTQ mass spectrometer, Mascot
T1 sequence: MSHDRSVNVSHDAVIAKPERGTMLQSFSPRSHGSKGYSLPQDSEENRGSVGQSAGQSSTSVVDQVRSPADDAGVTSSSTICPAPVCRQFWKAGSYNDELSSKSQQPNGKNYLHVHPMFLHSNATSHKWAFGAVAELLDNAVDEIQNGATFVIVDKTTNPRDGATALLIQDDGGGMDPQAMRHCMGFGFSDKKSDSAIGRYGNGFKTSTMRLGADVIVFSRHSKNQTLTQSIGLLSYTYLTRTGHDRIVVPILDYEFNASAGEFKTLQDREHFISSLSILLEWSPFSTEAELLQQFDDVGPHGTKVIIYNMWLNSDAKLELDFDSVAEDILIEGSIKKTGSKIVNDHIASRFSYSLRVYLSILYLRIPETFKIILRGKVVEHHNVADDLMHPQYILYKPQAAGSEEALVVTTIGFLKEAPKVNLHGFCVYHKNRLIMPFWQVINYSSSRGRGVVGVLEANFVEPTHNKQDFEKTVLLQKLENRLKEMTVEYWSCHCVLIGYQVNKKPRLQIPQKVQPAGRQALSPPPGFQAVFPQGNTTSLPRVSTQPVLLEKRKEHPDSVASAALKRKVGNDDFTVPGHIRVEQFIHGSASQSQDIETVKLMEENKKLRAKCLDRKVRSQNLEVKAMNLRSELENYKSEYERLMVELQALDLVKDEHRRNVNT

[2] = biological target: T2, SUVH9-3xFlag (Arabidopsis thaliana) (UniProt Q9T0G7); assay: as above
T2 sequence: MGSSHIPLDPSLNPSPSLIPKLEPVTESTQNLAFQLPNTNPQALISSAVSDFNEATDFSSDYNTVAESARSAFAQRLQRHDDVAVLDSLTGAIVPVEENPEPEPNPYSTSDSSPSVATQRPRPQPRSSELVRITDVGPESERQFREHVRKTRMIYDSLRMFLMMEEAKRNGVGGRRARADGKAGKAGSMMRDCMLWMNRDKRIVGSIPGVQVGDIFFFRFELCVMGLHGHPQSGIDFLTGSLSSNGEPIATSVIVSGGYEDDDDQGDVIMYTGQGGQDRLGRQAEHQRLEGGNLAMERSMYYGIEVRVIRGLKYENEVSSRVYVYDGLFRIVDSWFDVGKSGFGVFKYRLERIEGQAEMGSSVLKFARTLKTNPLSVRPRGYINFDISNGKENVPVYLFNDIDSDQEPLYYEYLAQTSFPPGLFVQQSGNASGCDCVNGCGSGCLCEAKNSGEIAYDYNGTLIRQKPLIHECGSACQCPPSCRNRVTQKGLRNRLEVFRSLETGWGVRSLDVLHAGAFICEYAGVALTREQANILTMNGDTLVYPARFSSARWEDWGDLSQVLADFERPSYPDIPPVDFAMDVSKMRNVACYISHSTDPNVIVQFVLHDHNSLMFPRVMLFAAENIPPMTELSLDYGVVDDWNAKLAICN

B1: MORC6/… IN MERISTEM … 11 (DMS11), endogenous (protein, UniProt Q56Y74 1-663)
chain: MSHDRSVNVSHDAVIAKPERGTMLQSFSPRSHGSKGYSLPQDSEENRGSVGQSAGQSSTSVVDQVRSPADDAGVTSSSTICPAPVCRQFWKAGSYNDELSSKSQQPNGKNYLHVHPMFLHSNATSHKWAFGAVAELLDNAVDEIQNGATFVIVDKTTNPRDGATALLIQDDGGGMDPQAMRHCMGFGFSDKKSDSAIGRYGNGFKTSTMRLGADVIVFSRHSKNQTLTQSIGLLSYTYLTRTGHDRIVVPILDYEFNASAGEFKTLQDREHFISSLSILLEWSPFSTEAELLQQFDDVGPHGTKVIIYNMWLNSDAKLELDFDSVAEDILIEGSIKKTGSKIVNDHIASRFSYSLRVYLSILYLRIPETFKIILRGKVVEHHNVADDLMHPQYILYKPQAAGSEEALVVTTIGFLKEAPKVNLHGFCVYHKNRLIMPFWQVINYSSSRGRGVVGVLEANFVEPTHNKQDFEKTVLLQKLENRLKEMTVEYWSCHCVLIGYQVNKKPRLQIPQKVQPAGRQALSPPPGFQAVFPQGNTTSLPRVSTQPVLLEKRKEHPDSVASAALKRKVGNDDFTVPGHIRVEQFIHGSASQSQDIETVKLMEENKKLRAKCLDRKVRSQNLEVKAMNLRSELENYKSEYERLMVELQALDLVKDEHRRNVNT
[1]
  binding: binds
[2]
  binding: binds

Source: paper PMC3898904
